Laboratory results published in paper PMC11662656.

Experiments:
[1] = target: MBP-Loc1p (Saccharomyces cerevisiae) (UniProt P43586); assay: EMSA (in-gel FRET); conditions: EMSA: 20 mM HEPES pH 7.8, 200 mM NaCl, 2 mM MgCl2, 2 mM DTT, 4% glycerol, 25 C, 5 nM RNA, 100 ug/ml tRNA (omitted in competition), recombinant protein, residues 1-204, protein details: MBP, label: 5' Cy3 / 5' Cy5
[2] = target: Loc1p (22-35) (Saccharomyces cerevisiae) (UniProt P43586); assay: NMR (1D imino titration); conditions: no shift at 10-fold excess, shifts only at 15-22-fold; NMR: 20 mM Na phosphate pH 7.4, 50 mM NaCl, 278 K; residues 22-35
[3] = target: Loc1p (118-131) (Saccharomyces cerevisiae) (UniProt P43586); assay: NMR (1D imino titration); conditions: no shift at 10-fold excess, shifts only at 15-22-fold; NMR: 20 mM Na phosphate pH 7.4, 50 mM NaCl, 278 K; residues 118-131

“AAAAAAAAAAAAAAAAAA / UUUUUUUUUUUUUUUUUU [A18/U18 dsRNA]”: binds [1].
“AAAAAAAAAAAAAAAAAAAAA / UUUUUUUUUUUUUUUUUU [A21 DNA/U18 RNA hybrid]”: binds ([1]; DNA:RNA hybrid).
“UCUCUGGUUAGGAAACUAACUAGGGA [dsRNA tetraloop]”: binds more weakly [2]; binds more weakly [3].

For some of these results: The comparison behind a weaker result is the experiment's own reference, which may not be listed here. For some of these results: Construct, isoform or probe ends are uncertain for at least one entry.
